# Library screen at single concentrations

Protein sequences, listed by entry. Tags and fused reporters are not part of them. Residues count along the entry.
UniProt P9WPC5, whole entry: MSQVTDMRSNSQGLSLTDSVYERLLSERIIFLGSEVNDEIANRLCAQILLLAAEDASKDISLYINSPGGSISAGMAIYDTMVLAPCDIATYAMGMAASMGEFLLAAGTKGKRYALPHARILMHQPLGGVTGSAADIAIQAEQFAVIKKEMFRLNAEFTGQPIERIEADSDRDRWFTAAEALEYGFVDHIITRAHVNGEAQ
UniProt P9WPC3, whole entry partner: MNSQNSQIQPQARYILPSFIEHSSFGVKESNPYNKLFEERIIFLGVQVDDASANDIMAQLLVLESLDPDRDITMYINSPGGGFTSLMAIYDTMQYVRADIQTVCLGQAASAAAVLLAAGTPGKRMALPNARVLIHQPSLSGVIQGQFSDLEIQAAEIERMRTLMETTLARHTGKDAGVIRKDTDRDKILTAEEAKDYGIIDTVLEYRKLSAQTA
UniProt P9WFT3, whole entry: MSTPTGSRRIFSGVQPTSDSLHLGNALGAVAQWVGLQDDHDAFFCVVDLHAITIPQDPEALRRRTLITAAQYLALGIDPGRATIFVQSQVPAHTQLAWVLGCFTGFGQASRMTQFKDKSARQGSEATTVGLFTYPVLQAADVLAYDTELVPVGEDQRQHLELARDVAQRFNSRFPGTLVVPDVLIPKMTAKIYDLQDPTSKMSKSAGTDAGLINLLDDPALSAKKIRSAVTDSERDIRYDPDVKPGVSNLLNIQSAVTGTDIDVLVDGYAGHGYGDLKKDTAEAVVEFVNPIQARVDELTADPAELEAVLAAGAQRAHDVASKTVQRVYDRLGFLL
UniProt I6X8D2, whole entry: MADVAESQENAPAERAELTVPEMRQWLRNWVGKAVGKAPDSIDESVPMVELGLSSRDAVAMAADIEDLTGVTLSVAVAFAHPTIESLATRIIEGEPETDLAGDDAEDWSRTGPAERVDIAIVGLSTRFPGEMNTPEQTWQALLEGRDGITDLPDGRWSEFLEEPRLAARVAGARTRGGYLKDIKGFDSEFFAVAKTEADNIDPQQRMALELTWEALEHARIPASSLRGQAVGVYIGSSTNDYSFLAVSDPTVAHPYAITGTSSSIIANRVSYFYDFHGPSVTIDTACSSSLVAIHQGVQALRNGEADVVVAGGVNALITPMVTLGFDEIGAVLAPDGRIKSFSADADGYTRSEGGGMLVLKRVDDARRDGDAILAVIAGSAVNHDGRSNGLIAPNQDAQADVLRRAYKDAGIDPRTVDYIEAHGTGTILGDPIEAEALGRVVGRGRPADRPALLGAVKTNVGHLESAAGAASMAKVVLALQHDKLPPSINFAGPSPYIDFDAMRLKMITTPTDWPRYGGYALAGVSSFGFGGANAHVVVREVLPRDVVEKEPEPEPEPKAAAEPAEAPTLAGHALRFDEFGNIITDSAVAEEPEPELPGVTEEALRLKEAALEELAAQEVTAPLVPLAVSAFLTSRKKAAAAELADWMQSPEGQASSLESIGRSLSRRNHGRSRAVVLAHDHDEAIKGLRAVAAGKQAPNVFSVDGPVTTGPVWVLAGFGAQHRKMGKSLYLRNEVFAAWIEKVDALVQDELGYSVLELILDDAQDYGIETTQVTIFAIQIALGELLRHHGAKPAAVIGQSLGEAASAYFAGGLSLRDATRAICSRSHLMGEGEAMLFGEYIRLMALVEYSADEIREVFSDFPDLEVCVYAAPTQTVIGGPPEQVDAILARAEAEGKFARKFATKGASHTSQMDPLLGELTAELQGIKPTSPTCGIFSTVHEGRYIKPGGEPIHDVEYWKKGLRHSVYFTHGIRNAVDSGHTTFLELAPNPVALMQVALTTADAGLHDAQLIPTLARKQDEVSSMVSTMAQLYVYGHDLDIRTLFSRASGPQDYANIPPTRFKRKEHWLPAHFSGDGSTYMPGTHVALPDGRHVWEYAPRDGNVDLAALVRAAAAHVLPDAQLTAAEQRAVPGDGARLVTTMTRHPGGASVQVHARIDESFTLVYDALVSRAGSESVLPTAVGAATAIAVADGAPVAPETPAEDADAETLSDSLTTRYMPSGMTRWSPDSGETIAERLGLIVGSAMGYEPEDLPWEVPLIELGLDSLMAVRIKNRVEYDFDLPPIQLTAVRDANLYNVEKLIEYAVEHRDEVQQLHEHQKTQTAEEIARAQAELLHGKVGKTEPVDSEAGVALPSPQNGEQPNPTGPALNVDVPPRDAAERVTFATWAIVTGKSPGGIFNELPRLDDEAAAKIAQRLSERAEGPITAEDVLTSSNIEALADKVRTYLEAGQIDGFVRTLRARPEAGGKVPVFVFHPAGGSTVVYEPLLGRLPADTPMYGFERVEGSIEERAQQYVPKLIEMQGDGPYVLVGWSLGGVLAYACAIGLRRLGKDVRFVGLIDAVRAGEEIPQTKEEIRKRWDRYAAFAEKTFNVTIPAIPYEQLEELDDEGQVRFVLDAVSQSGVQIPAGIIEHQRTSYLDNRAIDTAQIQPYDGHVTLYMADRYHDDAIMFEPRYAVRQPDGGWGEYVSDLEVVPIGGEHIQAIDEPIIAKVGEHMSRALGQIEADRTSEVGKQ
UniProt Q8IDJ8, 1-583: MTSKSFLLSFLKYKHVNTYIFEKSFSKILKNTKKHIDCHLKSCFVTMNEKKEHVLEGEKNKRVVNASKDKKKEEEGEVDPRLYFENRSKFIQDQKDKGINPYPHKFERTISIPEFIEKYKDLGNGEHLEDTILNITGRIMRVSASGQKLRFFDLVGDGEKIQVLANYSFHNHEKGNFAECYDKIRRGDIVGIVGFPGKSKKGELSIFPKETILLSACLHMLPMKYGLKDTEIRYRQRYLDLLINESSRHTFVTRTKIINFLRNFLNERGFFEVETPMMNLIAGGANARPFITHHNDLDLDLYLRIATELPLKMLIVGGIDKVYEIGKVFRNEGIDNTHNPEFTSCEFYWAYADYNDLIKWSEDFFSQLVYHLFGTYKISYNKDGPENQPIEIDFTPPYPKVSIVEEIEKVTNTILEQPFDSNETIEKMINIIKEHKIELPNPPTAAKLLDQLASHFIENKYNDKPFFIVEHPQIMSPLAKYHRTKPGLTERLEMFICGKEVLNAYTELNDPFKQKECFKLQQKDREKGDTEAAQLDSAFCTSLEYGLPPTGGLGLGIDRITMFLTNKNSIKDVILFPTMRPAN

Measurements from “University of Dundee, Small-Polar-MMV Screening Library” (2021), ChEMBL document CHEMBL3988442.

The filed quantity is “Percent Effect” (%). The record does not define 0% and 100%; most values in the screen are far below 50% and negative numbers occur (in some assays of this library far below -100). This is an unselected part of the compounds tested. A dash means the value is not listed here; it may have been measured.

ClpP1P2: 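ClpP1P2, Mycobacterium tuberculosis (UniProt P9WPC5 and UniProt P9WPC3). Protease assay of ClpP1P2, read by the AMC dye that it sets free. Compounds at 50 µM. Higher reads as stronger inhibition, judged from the few compounds that gave an IC50. Most other retested compounds had strongly negative values. Size under these conditions: about 69,000 compounds, about 10 of them at 50% or above in at least one test.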
MtTrpRS: 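Tryptophan-tRNA ligase, Mycobacterium tuberculosis (UniProt P9WFT3). Enzyme assay of tryptophanyl-tRNA synthetase; the read-out is not stated. Concentration: 10 µM. Direction is not recorded; retested compounds ran higher, which suggests that high means inhibition. Size under these conditions: about 65,000 compounds, about 64 of them at 50% or above in at least one test.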
Pks13 thioesterase: 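Enzyme assay of the thioesterase domain of polyketide synthase 13; the read-out is not stated. Target: Polyketide synthase Pks13, Mycobacterium tuberculosis (UniProt I6X8D2). Concentration: 30 µM. The record gives no direction; the compounds picked for IC50 retests had high values, so higher reads as stronger inhibition. About 67,000 compounds were tested under these conditions; 0.46% (about 300) showed 50% or more at least once.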
PfKRS1: 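Lysine-tRNA ligase, Plasmodium falciparum 3D7 (UniProt Q8IDJ8). Enzyme assay of the cytosolic lysyl-tRNA synthetase in 384-well plates, read by luminescence. Concentration: 30 µM. Direction is inferred from only a few compounds that gave an IC50; most scored high, so higher reads as stronger inhibition. Of about 69,000 compounds tested this way, about 49 (0.071%) reached 50% or more in at least one test.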

compound,ClpP1P2,MtTrpRS,Pks13 thioesterase,PfKRS1
COCC(O)CN(C)C(=O)NC1CCN(Cc2ccccn2)CC1 (stereo not given),15.12,1.839,-,3.188
CC(C)c1cc(N2CCC(N(C)C)C2)n2nccc2n1 (stereo not given),-4.359,-1.701,22.42,6.472
CN1CCC(N(C)C(=O)c2cnc3c(cnn3C3CCCC3)c2)CC1,-11.5,-3.762,-4.238,0.2928
CCCc1noc(CN2CCCC2c2ccsc2)n1 (stereo not given),2.347,1.338,-38.47,7.478
COc1ccc(N(C)C(=O)C2CN(C)CCO2)cc1F (stereo not given),12.92,-8.14,9.168,-1.443
Cc1cc(NCC(=O)N(C)CC(F)(F)F)c(C(N)=O)cc1F,-7.94,1.147,-51.78,-4.039
CC1CCN(c2nc3ncc4c(c3c(=O)[nH]2)CC(C)(C)CC4=O)CC1,-2.482,1.386,-10.14,3.578
CCCN(Cc1nc(-c2ccc(F)c(OC)c2)oc1C)CC1CCCO1 (stereo not given),-8.529,1.708,-3.251,2.502
COC(=O)Cn1nc(-c2ccccc2F)ccc1=O,-6.717,2.846,-13.43,-1.834
OC(CN(Cc1ccccc1)Cc1cccnc1)c1ccco1 (stereo not given),-5.645,0.3632,5.197,5.823
CN1CC(=O)N(c2cnn(C)c2)CC12CCN(CC1CC1)C2 (stereo not given),-17.28,-3.153,-16.45,-0.9326
CC(C)n1nc(Cn2cccc2)c2c1CN(Cc1ccoc1)C2,1.305,6.298,-13.05,6.37
CC(NC(=O)N(C)Cc1cccc(OC(F)F)c1)c1nncn1C (stereo not given),0.106,-1.754,-22.58,2.936
O=C(c1cocn1)N1C[C@@H]2COC[C@]2(COc2cccnc2)C1,-0.2868,-,-7.531,1.334
CC(=O)c1cnc(N(C)Cc2cnc3ccccc3n2)nc1C,16.51,4.417,-18.05,7.44
CN(C)c1cc(C(=O)Nc2ccccc2C(=O)NC(C)(C)C)ccn1,-3.753,1.145,-16.6,2.104
COc1ccccc1C(=O)N1CCN(C(=O)CCCc2cn[nH]c2)CC1,-2.832,0.5747,-14.69,4.778
O=C(c1ncccn1)N1C[C@H]2CCC[C@@]2(COc2ccccn2)C1,9.895,-4.359,-19.65,2.81
Cc1nc(C)n(CC2CCCN2CCc2cccs2)n1 (stereo not given),17.87,2.358,-17.47,-0.1091
CCn1ncc(CN2CCN(C(=O)Cn3cc(Br)c(C)n3)CC2)c1C,-15.96,0.5825,3.05,-3.066
Cc1cc(-c2cnc(NCc3cccnc3)nc2C(C)(C)C)on1,-2.745,1.057,-47,2.276
Cc1cc(OCC(=O)NS(=O)(=O)c2cccnc2)ccc1Cl,-32.92,-1.248,-19.51,-0.2668
O=C(CSCc1ccccn1)N(Cc1ccsc1)C1CC1,-5.86,-1.559,-33.41,2.742
c1coc(CN2CCO[C@H]3[C@@H](OCC4CC4)CC[C@@H]32)c1,10.45,-,-5.562,4.772
CC(=O)N1CCc2c(nc(N(C)C)nc2N(C)CC2CCCO2)C1 (stereo not given),-3.952,3.249,-14.35,3.883
Cc1nc(O)cc(CCNC(=O)c2ccccc2N2CCCC2)n1,-15.76,-4.515,-2.565,-3.583
Cc1cc(C(C)(O)CNC(=O)CCn2ccnc2C(C)C)c(C)o1 (stereo not given),3.223,0.9288,-3.06,2.822
CCC1CCCCN1C(=O)Cn1nc(-c2ccc(C)s2)cc(N)c1=O (stereo not given),-18.25,-6.728,-107.5,1.274
CCn1ccnc1CN1CCCN(C(=O)COC2CCCCC2)CC1,8.161,0.639,-7.627,0.074
O=C1c2cccnc2OC(CN2CCOCC2)CN1CC1CC1 (stereo not given),-3.678,-,4.906,1.051
CCN1CCOCC2(C1)CN(C(=O)c1c(C)noc1C)CCO2 (stereo not given),-13.7,-,-22.45,4.357
COc1cc(N2CCN(Cc3ccsc3)C(CCO)C2)nc(N)n1 (stereo not given),-7.752,2.251,-5.89,1.1
CCc1cc(N(C)CCc2c(C)n[nH]c2C)ncn1,-7.869,2.252,-44.23,6.505
CC(CCc1cccc(F)c1)NC(=O)NCc1ncnn1C (stereo not given),-2.063,-1.613,-32.03,1.517
CCN(CC)C1CCN(C(=O)NCc2c(C)noc2C)CC1,-0.2865,0.2467,-10.04,10.94
Cc1nc(CN(C)C(=O)Nc2cccc(COC(C)C)c2C)no1,0.8024,-4.913,-7.306,4.714
Cn1c(CNc2c(F)cccc2-n2cccn2)cc(=O)n(C)c1=O,-6.757,2.654,-31.24,6.813
CCOC(=O)c1nc(CC(=O)Nc2ccc3cc[nH]c3c2)no1,-6.116,0.89,-8.066,2.432
N#Cc1cccnc1N1CCC(C2CCCCCN2C(N)=O)CC1 (stereo not given),-205.1,-2.95,-1.585,-0.1353
Cc1noc2ncc(C(=O)N3CCCC3c3ccncc3)cc12 (stereo not given),-30.06,1.495,-24.54,0.794
Cc1nc(C(=O)NC2CCN(CCOc3ccc(Br)cc3)CC2)cs1,-0.5438,-8.42,12.34,-0.793
O=C(NCc1ccc(N2CCCC2)nc1)N1CCc2sccc2C1,5.37,-0.4036,4.844,5.362
O=C1COC2(COCCN(c3ccccn3)C2)CN1c1cccc(F)c1 (stereo not given),-2.892,-5.478,3.24,0.847
CC1=Nc2c(c(=O)[nH]n2C2CCCC2)C(c2ccc(O)cc2)S1 (stereo not given),4.996,2.488,-10.14,3.677
COCCNC(=O)c1ccc2ccc(N(C)CC3CC3)n2c1,20,-2.819,-12.22,0.8388
CC1c2cccn2CCN1C(=O)CCc1nc(-c2ccccc2)no1 (stereo not given),4.261,3.25,-18.94,4.664
Cc1noc(C)c1-c1cncc(C2CCCN2Cc2nccs2)n1 (stereo not given),-12.9,-,-8.354,1.331
Cc1ccccc1C(C#N)NC(=O)c1cccc2c1OCCO2 (stereo not given),-5.95,13.92,-8.851,1.655
O=S(=O)(C1CC1)N1CCOC2(CCCN(c3ccccc3)C2)C1 (stereo not given),10.25,4.209,5.047,-0.3086
CCOCC(=O)NCC(C)(O)c1cc(C)oc1C (stereo not given),-3.109,-3.815,-42.34,1.549
CNC(=O)c1cccc(NC(=O)NC(C)c2cc(C)oc2C)c1C (stereo not given),-8.773,-6.317,15.07,1.029
CCN(CC)C(=O)c1nnn(Cc2ccccc2)c1OC,-0.1923,4.221,-24.22,5.423
O=C(NCC(O)c1cccs1)c1ccco1 (stereo not given),0.5319,-6.175,-28.4,3.481
Cc1cnccc1CN(C)C(=O)C(C)(C)NC(=O)c1cccs1,-10.45,4.248,-15.34,4.151
Cc1nn(C)c(C)c1CCC(=O)N1CCCC1Cn1cccn1 (stereo not given),-12.7,-4.878,-7.43,6.178
CCC(=O)NC(Cc1cc(N(C)C)nc(C2CC2)n1)c1ccccc1 (stereo not given),-40.09,-3.017,-3.867,0.7633
Cc1c(Cl)c(C(=O)NN2CCOCC2)nn1C,-31.95,-0.3819,2.397,3.876